This passage reports binding results from article PMC6744409.

Results are given in words; binding and its absence hold for the method and conditions named. For some assays here: In cells and extracts the contact can be indirect. Some results given as binding are weak or reduced against the parent protein; the word gives no strength. For some assays here: Sequences can lack the tags named with a protein.

Test [1] deals with T1, LptB from Shigella flexneri (subunit of sfLptB2FG / sfLptB2FGC) (Shigella flexneri), P0A9V4.
T1 chain: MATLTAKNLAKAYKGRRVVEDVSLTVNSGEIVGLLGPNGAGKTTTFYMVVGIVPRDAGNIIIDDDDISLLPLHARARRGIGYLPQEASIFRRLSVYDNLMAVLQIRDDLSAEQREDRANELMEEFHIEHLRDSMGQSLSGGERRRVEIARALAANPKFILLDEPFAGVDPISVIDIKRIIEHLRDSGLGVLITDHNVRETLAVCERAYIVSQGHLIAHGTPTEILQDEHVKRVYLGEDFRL
Put plainly: cryo-EM structure; sfLptB2FG, LPS-bound (LPS co-purified from E. coli), nucleotide-free, in LMNG, ~1 mg/ml; 3.7 Å overall; both purified. To be noted: remark: other sources report otherwise.

Test [2] deals with T1, LptB from Shigella flexneri (subunit of …). Put plainly: cryo-EM structure; purified sfLptB2FGC incubated with 5 mM AMP-PNP and 2 mM MgCl2 for 1 h at room temperature, in LMNG; both purified. To be noted: remark: other sources report otherwise.
The target is the same in test [3]. Put plainly: cryo-EM structure; sfLptB2FGC, LPS-bound, nucleotide-free, in LMNG, ~1 mg/ml; 3.1 Å; both purified. To be noted: remark: other sources report otherwise.
For test [4], the target named is T2, LptF from Shigella flexneri (subunit of sfLptB2FG / sfLptB2FGC) (Shigella flexneri) (UniProt P0AFA1).
T2 sequence: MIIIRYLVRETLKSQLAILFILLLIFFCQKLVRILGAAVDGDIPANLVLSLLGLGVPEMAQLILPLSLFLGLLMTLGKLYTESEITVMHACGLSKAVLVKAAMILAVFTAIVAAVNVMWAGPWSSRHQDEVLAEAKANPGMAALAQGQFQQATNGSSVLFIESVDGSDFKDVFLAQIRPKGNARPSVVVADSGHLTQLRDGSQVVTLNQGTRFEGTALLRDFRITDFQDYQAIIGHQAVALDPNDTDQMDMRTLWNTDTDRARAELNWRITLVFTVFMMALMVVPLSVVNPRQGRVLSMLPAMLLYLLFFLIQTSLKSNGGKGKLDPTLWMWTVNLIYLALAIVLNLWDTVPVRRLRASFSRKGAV
The description is as above.

The target of test [5] is T3, E. coli LptB with His x8 tag at the C terminus (from pTRC99a-E. coli LptBF138G144C-Kan) (E. coli) (UniProt P0A9V1).
T3 sequence: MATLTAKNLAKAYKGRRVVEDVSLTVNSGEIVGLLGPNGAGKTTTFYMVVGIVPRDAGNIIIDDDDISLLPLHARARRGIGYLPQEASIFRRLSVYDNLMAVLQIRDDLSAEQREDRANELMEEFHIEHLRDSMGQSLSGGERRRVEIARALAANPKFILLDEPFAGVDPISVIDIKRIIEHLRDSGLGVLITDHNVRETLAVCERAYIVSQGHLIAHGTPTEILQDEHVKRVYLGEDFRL
Put plainly: pull-down; membrane fraction of NR1113 cells with pTRC99a-Kan E. coli LptB(His8)F(Flag)G(Myc)C solubilised in 1% DDM, loaded on Ni2+-NTA, washed with 30 mM imidazole, eluted with 500 mM imidazole; eluate blotted with anti-Flag or anti-Myc; the paper reads the blot as expression level.

Test [6] addresses T4, LptB from Shigella flexneri (subunit of sfLptB2FG / sfLptB2FGC) (Shigella flexneri) (UniProt P0A9V4).
T4 sequence: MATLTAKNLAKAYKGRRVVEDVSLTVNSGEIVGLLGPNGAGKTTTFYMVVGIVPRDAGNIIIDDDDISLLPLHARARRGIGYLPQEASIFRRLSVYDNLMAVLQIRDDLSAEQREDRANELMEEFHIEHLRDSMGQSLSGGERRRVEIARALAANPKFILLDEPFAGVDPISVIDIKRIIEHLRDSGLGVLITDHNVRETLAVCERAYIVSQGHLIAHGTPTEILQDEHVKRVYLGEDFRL
Put plainly: cryo-EM structure; sfLptB2FGC, LPS-bound, nucleotide-free, in LMNG, ~1 mg/ml; 3.1 Å; both purified.

Test [7] addresses T4, LptB from Shigella flexneri (subunit of sfLptB2FG / sfLptB2FGC) (Shigella flexneri). Put plainly: cryo-EM structure; purified sfLptB2FGC incubated with 5 mM AMP-PNP and 2 mM MgCl2 for 1 h at room temperature, in LMNG; both purified.
The target is the same in test [8]. Put plainly: cryo-EM structure; sfLptB2FG, LPS-bound (LPS co-purified from E. coli), nucleotide-free, in LMNG, ~1 mg/ml; 3.7 Å overall; both purified.

B1: LptB from Shigella flexneri (subunit of sfLptB2FG / sfLptB2FGC), P0A9V4 1-241 (protein)
chain: MATLTAKNLAKAYKGRRVVEDVSLTVNSGEIVGLLGPNGAGKTTTFYMVVGIVPRDAGNIIIDDDDISLLPLHARARRGIGYLPQEASIFRRLSVYDNLMAVLQIRDDLSAEQREDRANELMEEFHIEHLRDSMGQSLSGGERRRVEIARALAANPKFILLDEPFAGVDPISVIDIKRIIEHLRDSGLGVLITDHNVRETLAVCERAYIVSQGHLIAHGTPTEILQDEHVKRVYLGEDFRL
For B1, the binding entry in test [1], in test [2] and in test [3] was “binds” each time.

B2: LptC from Shigella flexneri (subunit of sfLptB2FGC) (protein, UniProt P0ADW2 1-191)
chain: MSKARRWVIIVLSLAVLVMIGINMAEKDDTAQVVVNNNDPTYKSEHTDTLVYNPEGALSYRLIAQHVEYYSDQAVSWFTQPVLTTFDKDKIPTWSVKADKAKLTNDRMLYLYGHVEVNALVPDSQLRRITTDNAQINLVTQDVTSEDLVTLYGTTFNSSGLKMRGNLRSKNAELIEKVRTSYEIQNKQTQP
Take B2: the binding entry in test [4] is recorded as “binds”.

B3: E. coli LptG with a c-Myc tag at 144 (LptG-144-Myc) (protein, UniProt P0ADC6 1-360)
chain: MQPFGVLDRYIGKTIFTTIMMTLFMLVSLSGIIKFVDQLKKAGQGSYDALGAGMYTLLSVPKDVQIFFPMAALLGALLGLGMLAQRSELVVMQASGFTRMQVALSVMKTAIPLVLLTMAIGEWVAPQGEQMARNYRAQAMYGGSLLSTQQGLWAKDGNNFVYIERVKGDEELGGISIYAFNENRRLQSVRYAATAKFDPEHKVWRLSQVDESDLTNPKQITGSQTVSGTWKTNLTPDKLGVVALDPDALSISGLHNYVKYLKSSGQDAGRYQLNMWSKIFQPLSVAVMMLMALSFIFGPLRSVPMGVRVVTGISFGFVFYVLDQIFGPLTLVYGIPPIIGALLPSASFFLISLWLLMRKS
B3: in test [5], the binding result is reported as “binds”.

B4: E. coli LptG-144-Myc K62E (protein, UniProt P0ADC6 1-360)
chain: MQPFGVLDRYIGKTIFTTIMMTLFMLVSLSGIIKFVDQLKKAGQGSYDALGAGMYTLLSVPEDVQIFFPMAALLGALLGLGMLAQRSELVVMQASGFTRMQVALSVMKTAIPLVLLTMAIGEWVAPQGEQMARNYRAQAMYGGSLLSTQQGLWAKDGNNFVYIERVKGDEELGGISIYAFNENRRLQSVRYAATAKFDPEHKVWRLSQVDESDLTNPKQITGSQTVSGTWKTNLTPDKLGVVALDPDALSISGLHNYVKYLKSSGQDAGRYQLNMWSKIFQPLSVAVMMLMALSFIFGPLRSVPMGVRVVTGISFGFVFYVLDQIFGPLTLVYGIPPIIGALLPSASFFLISLWLLMRKS
B4: the binding result in test [5] was “binds”.

B5: LptF from Shigella flexneri (subunit of sfLptB2FG / sfLptB2FGC) (protein, UniProt P0AFA1 1-366)
chain: MIIIRYLVRETLKSQLAILFILLLIFFCQKLVRILGAAVDGDIPANLVLSLLGLGVPEMAQLILPLSLFLGLLMTLGKLYTESEITVMHACGLSKAVLVKAAMILAVFTAIVAAVNVMWAGPWSSRHQDEVLAEAKANPGMAALAQGQFQQATNGSSVLFIESVDGSDFKDVFLAQIRPKGNARPSVVVADSGHLTQLRDGSQVVTLNQGTRFEGTALLRDFRITDFQDYQAIIGHQAVALDPNDTDQMDMRTLWNTDTDRARAELNWRITLVFTVFMMALMVVPLSVVNPRQGRVLSMLPAMLLYLLFFLIQTSLKSNGGKGKLDPTLWMWTVNLIYLALAIVLNLWDTVPVRRLRASFSRKGAV
Turning to B5, the binding entry in test [6], in test [7] and in test [8] was “binds” each time.

B6: E. coli LptF-138-Flag P139D (protein, UniProt P0AF98 1-366)
chain: MIIIRYLVRETLKSQLAILFILLLIFFCQKLVRILGAAVDGDIPANLVLSLLGLGVPEMAQLILPLSLFLGLLMTLGKLYTESEITVMHACGLSKAVLVKAAMILAVFTAIVAAVNVMWAGPWSSRHQDEVLAEAKANDGMAALAQGQFQQATNGSSVLFIESVDGSDFKDVFLAQIRPKGNARPSVVVADSGHLTQLRDGSQVVTLNQGTRFEGTALLRDFRITDFQDYQAIIGHQAVALDPNDTDQMDMRTLWNTDTDRARAELNWRITLVFTVFMMALMVVPLSVVNPRQGRVLSMLPAMLLYLLFFLIQTSLKSNGGKGKLDPTLWMWTVNLIYLALAIVLNLWDTVPVRRLRASFSRKGAV
Turning to B6, the binding entry in test [5] is recorded as “binds”.

B7: E. coli LptF with a Flag tag at residue 138 (LptF-138-Flag) (protein, UniProt P0AF98 1-366)
chain: MIIIRYLVRETLKSQLAILFILLLIFFCQKLVRILGAAVDGDIPANLVLSLLGLGVPEMAQLILPLSLFLGLLMTLGKLYTESEITVMHACGLSKAVLVKAAMILAVFTAIVAAVNVMWAGPWSSRHQDEVLAEAKANPGMAALAQGQFQQATNGSSVLFIESVDGSDFKDVFLAQIRPKGNARPSVVVADSGHLTQLRDGSQVVTLNQGTRFEGTALLRDFRITDFQDYQAIIGHQAVALDPNDTDQMDMRTLWNTDTDRARAELNWRITLVFTVFMMALMVVPLSVVNPRQGRVLSMLPAMLLYLLFFLIQTSLKSNGGKGKLDPTLWMWTVNLIYLALAIVLNLWDTVPVRRLRASFSRKGAV
On to B7, for which the binding entry in test [5] is reported as “binds”.
